Experimental data from paper doi:10.1101/2022.03.21.485087.
No constants are given. Whether binding was seen depends on the method and setting. In cells and extracts the contact can be indirect. Some results given as binding are weak or reduced against the parent protein; the word gives no strength.

Sequences of proteins named here, by UniProt entry; tags and fusion partners are left off. A change or cut given only in a name is not applied to a line headed by its entry.
UniProt Q14203: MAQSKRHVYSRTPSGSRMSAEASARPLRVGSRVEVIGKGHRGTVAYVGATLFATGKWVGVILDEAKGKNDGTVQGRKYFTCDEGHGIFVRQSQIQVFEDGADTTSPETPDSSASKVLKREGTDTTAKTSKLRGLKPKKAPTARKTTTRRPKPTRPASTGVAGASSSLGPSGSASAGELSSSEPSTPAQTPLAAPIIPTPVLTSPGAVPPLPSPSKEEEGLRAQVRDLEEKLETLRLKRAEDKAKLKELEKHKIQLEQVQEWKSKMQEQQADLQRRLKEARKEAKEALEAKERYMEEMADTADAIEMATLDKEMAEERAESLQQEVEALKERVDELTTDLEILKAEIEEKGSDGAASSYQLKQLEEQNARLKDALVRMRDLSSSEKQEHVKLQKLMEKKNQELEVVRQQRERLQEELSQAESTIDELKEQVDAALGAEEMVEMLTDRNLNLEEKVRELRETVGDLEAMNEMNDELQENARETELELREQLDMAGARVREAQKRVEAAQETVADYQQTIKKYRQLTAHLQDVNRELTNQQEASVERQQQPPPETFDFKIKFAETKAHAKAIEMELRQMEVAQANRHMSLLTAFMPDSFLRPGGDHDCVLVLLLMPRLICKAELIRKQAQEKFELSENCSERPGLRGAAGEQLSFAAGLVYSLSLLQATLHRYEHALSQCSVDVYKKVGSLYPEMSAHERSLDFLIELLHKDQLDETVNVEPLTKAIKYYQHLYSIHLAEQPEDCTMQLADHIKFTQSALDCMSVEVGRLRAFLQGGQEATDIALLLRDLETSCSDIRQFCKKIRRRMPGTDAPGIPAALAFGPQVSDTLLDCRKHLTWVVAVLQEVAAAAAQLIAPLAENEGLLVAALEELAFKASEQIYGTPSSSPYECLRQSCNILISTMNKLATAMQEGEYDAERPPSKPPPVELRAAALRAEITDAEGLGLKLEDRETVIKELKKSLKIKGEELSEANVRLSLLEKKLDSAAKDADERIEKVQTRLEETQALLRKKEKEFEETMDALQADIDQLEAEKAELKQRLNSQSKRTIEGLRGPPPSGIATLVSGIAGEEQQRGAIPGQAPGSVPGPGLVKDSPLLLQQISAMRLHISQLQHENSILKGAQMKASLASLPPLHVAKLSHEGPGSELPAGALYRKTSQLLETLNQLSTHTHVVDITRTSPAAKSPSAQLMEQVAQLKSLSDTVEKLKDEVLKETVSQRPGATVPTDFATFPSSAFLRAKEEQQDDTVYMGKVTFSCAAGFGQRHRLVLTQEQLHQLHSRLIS
UniProt P10235: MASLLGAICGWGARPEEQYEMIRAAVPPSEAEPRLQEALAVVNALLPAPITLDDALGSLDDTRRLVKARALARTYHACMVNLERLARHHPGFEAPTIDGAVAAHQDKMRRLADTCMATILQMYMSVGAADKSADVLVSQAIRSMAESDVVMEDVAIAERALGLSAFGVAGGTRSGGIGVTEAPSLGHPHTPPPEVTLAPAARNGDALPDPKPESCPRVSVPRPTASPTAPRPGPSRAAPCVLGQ

Target: FLAG-EGFP-p150Glued (UniProt Q14203)
Experiment: co-IP

Substance	binding
pUL51-HA (wild-type HSV-1 tegument protein pUL51, HA-tagged) (from UniProt P10235 1-244)	binds
pUL51^90-125-mCherry (from UniProt P10235 90-125) (domain or fragment)	binds
